{
  "source": "patent US20170367995A1",
  "about": "“TREATMENT OF EARLY STAGE PARKINSON'S DISEASE WITH A HYDROXYTYROSOL-CONTAINING POLYPHENOL FORMULATION” (Allevium Therapeutics, Inc., priority 2016, published 2017)",
  "origin": "cited, not measured here",
  "key": {"[1]": {"conditions": "oral administration; González-Santiago et al. (2010); cited from earlier work"}, "[2]": {"conditions": "on the order of, or higher; Vissers et al. (2004); cited from earlier work"}},
  "note": "For some assays here: At least one read-out could not be matched to a standard name with certainty. Some results were stated once for a whole list of compounds, not compound by compound.",
  "data": [
    {"smiles": "OCCc1ccc(O)c(O)c1", "note": "[hydroxytyrosol, 4-(hydroxyethyl)-1,2-benzene diol]", "values": [
      {"measurement": "time to plasma Cmax (Tmax)", "setting": "[1]", "result": 13, "unit": "min"},
      {"measurement": "bioavailability", "setting": "[2]", "result": "55-66 mol %"}
    ]}
  ]
}
